Publication PMC8319186, “Mitochondrial adaptor TRAK2 activates and functionally links opposing kinesin and dynein motors” (Nature Communications, 2021)
Substitutions are numbered along the chain they refer to. These are yes or no findings as the source states them, for the method shown. For some assays here: Binding seen in cells or lysates may run through a third protein. Some results given as binding are weak or reduced against the parent protein; the word gives no strength. Each block holds one substance with its values, some of them ahead of it.

Chains of the proteins cited; added tags and fusions are not shown.
UniProt P28738: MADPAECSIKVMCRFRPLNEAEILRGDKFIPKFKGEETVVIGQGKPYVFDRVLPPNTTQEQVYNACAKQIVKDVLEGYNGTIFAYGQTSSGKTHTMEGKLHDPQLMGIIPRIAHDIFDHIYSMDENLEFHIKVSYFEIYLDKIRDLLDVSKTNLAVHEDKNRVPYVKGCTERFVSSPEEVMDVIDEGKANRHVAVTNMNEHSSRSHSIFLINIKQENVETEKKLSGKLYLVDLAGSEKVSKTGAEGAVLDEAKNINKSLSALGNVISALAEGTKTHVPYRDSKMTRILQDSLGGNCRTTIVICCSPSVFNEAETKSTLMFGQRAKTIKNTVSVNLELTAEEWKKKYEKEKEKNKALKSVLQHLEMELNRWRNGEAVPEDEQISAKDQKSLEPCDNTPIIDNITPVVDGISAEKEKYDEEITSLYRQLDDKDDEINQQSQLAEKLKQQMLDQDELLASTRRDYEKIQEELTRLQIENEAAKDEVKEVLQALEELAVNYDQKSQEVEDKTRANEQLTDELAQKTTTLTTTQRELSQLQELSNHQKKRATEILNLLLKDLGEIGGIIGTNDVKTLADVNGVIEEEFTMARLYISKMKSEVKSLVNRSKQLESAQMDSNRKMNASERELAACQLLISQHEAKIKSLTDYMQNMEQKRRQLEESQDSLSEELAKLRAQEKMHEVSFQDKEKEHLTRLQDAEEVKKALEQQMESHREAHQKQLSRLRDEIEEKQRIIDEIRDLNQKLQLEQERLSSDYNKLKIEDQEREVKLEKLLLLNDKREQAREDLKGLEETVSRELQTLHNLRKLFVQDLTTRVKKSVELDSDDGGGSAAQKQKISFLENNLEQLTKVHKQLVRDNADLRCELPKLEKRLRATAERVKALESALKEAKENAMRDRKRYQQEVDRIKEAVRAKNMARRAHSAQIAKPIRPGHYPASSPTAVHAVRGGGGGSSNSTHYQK
UniProt Q14203: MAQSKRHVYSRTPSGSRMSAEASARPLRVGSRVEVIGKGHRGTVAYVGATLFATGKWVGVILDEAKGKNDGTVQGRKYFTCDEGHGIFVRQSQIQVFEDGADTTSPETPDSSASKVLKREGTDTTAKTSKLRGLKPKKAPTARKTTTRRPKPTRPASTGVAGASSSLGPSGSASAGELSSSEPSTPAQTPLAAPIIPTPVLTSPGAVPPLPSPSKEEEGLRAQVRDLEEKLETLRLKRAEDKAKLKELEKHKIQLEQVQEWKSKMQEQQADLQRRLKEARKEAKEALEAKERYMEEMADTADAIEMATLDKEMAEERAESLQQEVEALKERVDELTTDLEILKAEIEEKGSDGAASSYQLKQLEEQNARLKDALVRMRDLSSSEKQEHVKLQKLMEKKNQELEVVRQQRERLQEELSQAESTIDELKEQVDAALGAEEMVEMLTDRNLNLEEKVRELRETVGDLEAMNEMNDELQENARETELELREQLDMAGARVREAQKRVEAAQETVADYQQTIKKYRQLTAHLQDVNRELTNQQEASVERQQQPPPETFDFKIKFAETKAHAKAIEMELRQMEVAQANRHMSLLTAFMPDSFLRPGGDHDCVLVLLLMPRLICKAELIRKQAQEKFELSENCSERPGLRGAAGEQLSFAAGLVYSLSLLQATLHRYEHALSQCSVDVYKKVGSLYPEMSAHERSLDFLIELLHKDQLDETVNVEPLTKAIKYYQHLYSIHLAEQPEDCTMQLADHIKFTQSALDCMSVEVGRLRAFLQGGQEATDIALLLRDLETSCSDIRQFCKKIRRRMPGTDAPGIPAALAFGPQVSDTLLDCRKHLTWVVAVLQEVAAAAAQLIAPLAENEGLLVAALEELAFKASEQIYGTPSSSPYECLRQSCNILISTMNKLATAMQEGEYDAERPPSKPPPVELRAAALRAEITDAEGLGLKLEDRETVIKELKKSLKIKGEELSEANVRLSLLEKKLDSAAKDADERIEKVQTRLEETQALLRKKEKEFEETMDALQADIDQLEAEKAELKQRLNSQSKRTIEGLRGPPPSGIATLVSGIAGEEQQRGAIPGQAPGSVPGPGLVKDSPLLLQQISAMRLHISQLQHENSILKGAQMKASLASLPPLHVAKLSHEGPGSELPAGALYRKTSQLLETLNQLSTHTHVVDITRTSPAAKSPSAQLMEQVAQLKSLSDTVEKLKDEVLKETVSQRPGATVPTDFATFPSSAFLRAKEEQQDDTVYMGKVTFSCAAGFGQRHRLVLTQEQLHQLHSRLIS
UniProt Q61768: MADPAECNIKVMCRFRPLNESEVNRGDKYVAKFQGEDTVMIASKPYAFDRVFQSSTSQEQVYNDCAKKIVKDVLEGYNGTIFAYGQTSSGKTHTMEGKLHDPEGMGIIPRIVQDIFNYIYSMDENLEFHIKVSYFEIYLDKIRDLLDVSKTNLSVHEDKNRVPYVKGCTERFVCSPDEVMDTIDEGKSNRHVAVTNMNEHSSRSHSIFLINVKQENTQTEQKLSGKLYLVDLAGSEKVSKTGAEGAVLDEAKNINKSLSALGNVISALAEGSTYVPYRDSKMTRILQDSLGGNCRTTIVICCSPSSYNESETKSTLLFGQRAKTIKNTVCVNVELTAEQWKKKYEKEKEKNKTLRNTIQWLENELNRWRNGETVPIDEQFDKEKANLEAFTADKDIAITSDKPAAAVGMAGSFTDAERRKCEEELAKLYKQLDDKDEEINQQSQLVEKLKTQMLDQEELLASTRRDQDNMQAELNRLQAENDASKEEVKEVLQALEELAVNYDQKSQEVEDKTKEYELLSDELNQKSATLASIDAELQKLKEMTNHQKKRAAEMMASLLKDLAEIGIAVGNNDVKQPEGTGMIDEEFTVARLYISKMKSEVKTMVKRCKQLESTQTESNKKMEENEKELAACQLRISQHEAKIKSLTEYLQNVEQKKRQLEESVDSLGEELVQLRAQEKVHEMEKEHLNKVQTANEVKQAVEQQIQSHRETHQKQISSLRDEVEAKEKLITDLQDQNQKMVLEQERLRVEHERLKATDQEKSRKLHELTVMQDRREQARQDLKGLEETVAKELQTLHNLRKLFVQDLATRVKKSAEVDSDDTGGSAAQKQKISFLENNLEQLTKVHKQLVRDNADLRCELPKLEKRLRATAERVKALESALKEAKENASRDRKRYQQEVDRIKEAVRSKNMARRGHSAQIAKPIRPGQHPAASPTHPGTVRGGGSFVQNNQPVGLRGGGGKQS
UniProt Q9BTE1: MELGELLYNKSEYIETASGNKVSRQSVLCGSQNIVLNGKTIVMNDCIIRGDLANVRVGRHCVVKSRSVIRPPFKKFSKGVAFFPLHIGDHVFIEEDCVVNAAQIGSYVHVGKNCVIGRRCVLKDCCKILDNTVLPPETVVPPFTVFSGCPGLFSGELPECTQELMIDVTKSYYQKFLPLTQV

Key:
[1] = biological target: Myc-KIF5C-Halo (in HeLa) (mouse) (UniProt P28738); experiment: single-molecule co-migration (three-color TIRF microscopy); lysate of HeLa cells stably expressing DHC-GFP and transfected with SNAP-TRAK2 (JF646), Myc-KIF5C-Halo (TMR) and HA-LIS1, on unlabeled microtubules
SNAP-TRAK2 = biological target: T1, SNAP-TRAK2 (UniProt O60296); experiment: as above
T1 sequence (chain, JF646-SNAP ligand on the SNAP tag): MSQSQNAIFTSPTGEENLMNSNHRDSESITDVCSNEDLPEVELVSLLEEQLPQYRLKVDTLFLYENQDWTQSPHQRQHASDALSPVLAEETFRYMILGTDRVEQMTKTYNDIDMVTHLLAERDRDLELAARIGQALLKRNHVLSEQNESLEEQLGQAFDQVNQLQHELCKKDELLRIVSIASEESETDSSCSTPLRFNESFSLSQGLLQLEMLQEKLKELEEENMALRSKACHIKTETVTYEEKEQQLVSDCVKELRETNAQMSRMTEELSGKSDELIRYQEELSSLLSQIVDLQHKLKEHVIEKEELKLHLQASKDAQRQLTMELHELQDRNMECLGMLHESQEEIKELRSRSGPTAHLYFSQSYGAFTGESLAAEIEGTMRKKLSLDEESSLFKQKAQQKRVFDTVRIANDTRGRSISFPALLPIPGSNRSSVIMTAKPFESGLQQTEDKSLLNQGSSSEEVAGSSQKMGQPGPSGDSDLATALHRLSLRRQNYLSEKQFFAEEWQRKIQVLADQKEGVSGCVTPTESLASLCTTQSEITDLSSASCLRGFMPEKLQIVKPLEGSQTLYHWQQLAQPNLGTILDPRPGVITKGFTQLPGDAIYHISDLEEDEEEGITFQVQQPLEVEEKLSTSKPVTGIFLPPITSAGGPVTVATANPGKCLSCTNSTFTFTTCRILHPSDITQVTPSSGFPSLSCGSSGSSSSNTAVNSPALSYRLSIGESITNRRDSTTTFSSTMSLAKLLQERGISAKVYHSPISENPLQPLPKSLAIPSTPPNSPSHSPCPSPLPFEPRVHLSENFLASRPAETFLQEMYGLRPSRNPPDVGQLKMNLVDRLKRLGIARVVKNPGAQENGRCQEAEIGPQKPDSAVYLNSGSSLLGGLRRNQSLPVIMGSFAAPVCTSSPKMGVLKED

FLAG-p150^Glued = FLAG-p150^Glued (UniProt Q14203); experiment: co-IP; COS-7 cells expressing FLAG-p150^Glued and Myc-KIF5B with or without HA-TRAK2; anti-FLAG antibody (negative control GFP antibody) on Protein G Dynabeads, 30 min at room temperature; Western blot
Halo-TRAK2 [2] = biological target: T2, Halo-TRAK2 (UniProt O60296); experiment: co-IP; COS-7 cells expressing Myc-KIF5B and Halo-tagged TRAK2, TRAK2 A/V, TRAK2 I/D or negative control Optineurin; anti-HaloTag antibody on Protein G Dynabeads, 30 min at room temperature; blots for endogenous DHC and Myc-KIF5B
T2 sequence: T1 sequence (chain, JF646-SNAP ligand on the SNAP tag)

Halo-TRAK2 AA129-130VV = biological target: T3, Halo-TRAK2 AA129-130VV (UniProt O60296); experiment: as above
T3 sequence: T1 sequence (chain, JF646-SNAP ligand on the SNAP tag) with A129V, A130V

Halo-TRAK2 I132D = biological target: T4, Halo-TRAK2 I132D (UniProt O60296); experiment: as above
T4 sequence: T1 sequence (chain, JF646-SNAP ligand on the SNAP tag) with I132D

Halo-TRAK2 [3] = biological target: T2, Halo-TRAK2; experiment: single-molecule co-migration (dual-color TIRF microscopy); lysate of COS-7 cells expressing TMR-labeled Halo-TRAK2 and GFP-p25, on dynamic microtubules at 37 C

binding [1]: binds
binding (SNAP-TRAK2): binds
Substance: GFP-tagged dynein heavy chain (DHC-GFP) (from UniProt Q9JHU4 1-4644)

binding (FLAG-p150^Glued): binds
binding (Halo-TRAK2 [2]): binds
binding (Halo-TRAK2 AA129-130VV): binds
binding (Halo-TRAK2 I132D): binds
Substance: Myc-KIF5B (from UniProt Q61768 1-963)

binding (SNAP-TRAK2): binds
Substance: Myc-KIF5C-Halo (in HeLa) (from UniProt P28738 1-956)

binding (Halo-TRAK2 [3]): binds
Substance: eGFP-P25 (from UniProt Q9BTE1 1-182)
